Data: article PMC12377713
These are yes or no findings as the source states them, for the method shown. Binding seen in cells or lysates may run through a third protein. Some results given as binding are weak or reduced against the parent protein; the word gives no strength.

The chains behind the UniProt entries cited, without tags or fusion partners.
UniProt Q9Y519: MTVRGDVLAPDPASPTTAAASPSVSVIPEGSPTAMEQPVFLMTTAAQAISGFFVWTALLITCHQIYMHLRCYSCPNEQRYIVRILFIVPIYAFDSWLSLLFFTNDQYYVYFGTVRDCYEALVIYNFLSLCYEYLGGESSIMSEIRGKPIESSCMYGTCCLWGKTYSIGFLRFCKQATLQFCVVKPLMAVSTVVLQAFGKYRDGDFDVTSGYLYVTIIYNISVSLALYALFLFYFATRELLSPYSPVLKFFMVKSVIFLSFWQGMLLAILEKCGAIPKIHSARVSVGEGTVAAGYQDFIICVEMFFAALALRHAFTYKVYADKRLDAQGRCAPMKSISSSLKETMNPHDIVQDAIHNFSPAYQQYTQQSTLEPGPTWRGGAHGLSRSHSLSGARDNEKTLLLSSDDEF
UniProt Q93050: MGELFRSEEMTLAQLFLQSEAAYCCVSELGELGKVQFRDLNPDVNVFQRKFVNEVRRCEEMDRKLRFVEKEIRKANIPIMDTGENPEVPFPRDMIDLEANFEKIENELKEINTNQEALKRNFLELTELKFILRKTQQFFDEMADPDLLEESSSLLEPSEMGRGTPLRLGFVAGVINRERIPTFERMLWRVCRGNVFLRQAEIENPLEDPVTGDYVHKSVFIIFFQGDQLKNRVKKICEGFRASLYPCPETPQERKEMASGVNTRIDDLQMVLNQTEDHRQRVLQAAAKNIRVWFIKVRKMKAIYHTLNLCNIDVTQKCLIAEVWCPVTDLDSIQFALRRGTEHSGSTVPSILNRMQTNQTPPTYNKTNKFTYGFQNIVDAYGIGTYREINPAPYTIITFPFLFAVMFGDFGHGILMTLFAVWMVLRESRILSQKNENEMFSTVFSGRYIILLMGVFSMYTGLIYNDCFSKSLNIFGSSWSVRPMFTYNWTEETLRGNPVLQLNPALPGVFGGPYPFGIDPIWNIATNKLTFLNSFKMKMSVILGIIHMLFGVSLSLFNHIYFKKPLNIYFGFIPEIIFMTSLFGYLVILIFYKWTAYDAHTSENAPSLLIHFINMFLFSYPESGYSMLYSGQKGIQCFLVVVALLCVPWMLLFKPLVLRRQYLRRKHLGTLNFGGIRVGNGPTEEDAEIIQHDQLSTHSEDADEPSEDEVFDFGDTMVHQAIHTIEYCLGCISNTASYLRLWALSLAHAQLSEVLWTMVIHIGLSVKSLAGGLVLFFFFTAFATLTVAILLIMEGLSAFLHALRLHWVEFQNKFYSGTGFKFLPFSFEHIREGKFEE

Target: FLAG–TMEM184B–GFP (human) (UniProt Q9Y519)
Experiment: co-IP; FLAG–TMEM184B–GFP (control FLAG-GFP) expressed in cells; IP of V0a1 and blot for FLAG, and reverse IP with FLAG antibody and blot for V0a1

binding: binds
Substance: ATP6V0A1 (the V0a1 subunit of the V-ATPase) (from UniProt Q93050 1-837)
